## Screening data

Data taken from PubChem BioAssay AID977624, deposited by Broad Institute (2014).

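Wild-type E. coli carrying GFP, grown in the same well as an h34 humanized-ribosome RFP strain; GFP fluorescence for growth, read after 24 h. The value is the change in activity at the highest dose tested; more negative means stronger inhibition. Active requires GFP to fall at least twice as much as RFP with growth loss below a set limit; inconclusive means no clear call; everything else is inactive.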

These entries are mostly ones the record files as inconclusive; other results of the assay are not listed here.

Result for Cc1cc(C)c(S(=O)(=O)NCCOc2ccccc2)c(C)c1-n1cnnn1 [at 50 µM (top of the series)] was activity change -6.339 (inconclusive).
Result for O=C(O)c1ccccc1-c1ccccc1C(=O)Nc1ccc2c(c1)CCC2 [at 50 µM (top of the series)] was activity change -29.9 (inconclusive).
Result for O=C(Nc1cccc(Cl)c1)N1C[C@H]2[C@@H](c3ccccc31)[C@H](CO)N2Cc1ccncc1 [at 50 µM (top of the series)] was activity change 23.96 (inconclusive).
Result for COc1ccc(/C=C/c2nc3ccccc3n2Cc2ccccc2OC)cc1 [at 50 µM (top of the series)] was activity change 2.26 (inconclusive).
Result for CC1Cc2ccccc2N1C(=O)CN1C(=O)NC(C)(CCc2ccccc2)C1=O (stereo unspecified) [at 50 µM (top of the series)] was activity change 7.821 (inactive).
Result for COc1ccc(NC(=O)c2cccnc2SC)cc1S(=O)(=O)N1CCCCC1 [at 50 µM (top of the series)] was activity change 11.82 (inconclusive).
Result for COC(=O)[C@@H](Cc1c[nH]c2ccccc12)NCc1cccc(B(O)O)c1 [at 50 µM (top of the series)] was activity change 0.264 (inconclusive).
Result for COc1ccc(NS(=O)(=O)c2cccc3ccccc23)cc1 [at 50 µM (top of the series)] was activity change -20.55 (inconclusive).
Result for CC1Cc2cc(-c3csc(NC(=O)Cc4ccccc4)n3)ccc2N1S(C)(=O)=O (stereo unspecified) [at 50 µM (top of the series)] was activity change -7.615 (inconclusive).
Result for Cc1onc(-c2ccccc2)c1C(=O)Oc1ccccc1 [at 50 µM (top of the series)] was activity change 12.21 (inconclusive).
Result for COc1ccc(C#Cc2ccc3c(c2)[C@@H]2[C@@H](CCN2Cc2nccs2)[C@@H](CO)N3)cc1 [at 50 µM (top of the series)] was activity change -8.008 (inconclusive).
Result for COC(=O)CN1C(=S)N(c2ccc(F)cc2)C(=O)C1CC(=O)Nc1ccc(F)cc1 (stereo unspecified) [at 50 µM (top of the series)] was activity change 9.368 (inconclusive).
Result for COc1ccc(-c2cc(C(=O)N3CCCCC3)no2)cc1OC [at 50 µM (top of the series)] was activity change -21.44 (inconclusive).
Result for CC1(c2ccc3ccccc3c2)NC(=O)N(CC(=O)N2CCN(c3ccccc3O)CC2)C1=O (stereo unspecified) [at 50 µM (top of the series)] was activity change 2.679 (inactive).
Result for COc1cccc(CC(=O)OC(C)C(=O)NCc2ccc3c(c2)OCO3)c1 (stereo unspecified) [at 50 µM (top of the series)] was activity change -19.51 (inactive).
Result for Cc1ccc(CNC(=O)c2ccc(Br)o2)cc1 [at 50 µM (top of the series)] was activity change -14.82 (inconclusive).
Result for C[C@@H]1CN([C@H](C)CO)C(=O)c2cccc(NC(=O)Nc3ccc4c(c3)OCO4)c2O[C@@H]1CN(C)C(=O)Nc1ccc2c(c1)OCO2 [at 50 µM (top of the series)] was activity change 13.8 (inconclusive).
Result for O=C1c2ccccc2C(c2nnnn2Cc2ccccc2)N1CCc1ccc(O)cc1 (stereo unspecified) [at 50 µM (top of the series)] was activity change -8.064 (inconclusive).
Result for Nc1ccc(C(=O)OCCc2ccccc2)cc1 [at 50 µM (top of the series)] was activity change 14.58 (inconclusive).
Result for CN1CCN(C(=O)C[C@H]2CC[C@H]3[C@@H](COC[C@@H](O)CN3C(=O)Nc3ccc(Cl)cc3)O2)CC1 [at 50 µM (top of the series)] was activity change 26.23 (inconclusive).
Result for Cc1ccc(C)c(N(CC(=O)NC2CCCC2)C(=O)c2oc(C(C)(C)C)cc2C)c1 [at 50 µM (top of the series)] was activity change 0.133 (inactive).
Result for O=C(NCCc1csc(-c2ccccc2)n1)c1ccccc1F [at 50 µM (top of the series)] was activity change -11.14 (inconclusive).
Result for O=C(COn1nnc2ccc(C(F)(F)F)cc21)Nc1c(Cl)cccc1Cl [at 50 µM (top of the series)] was activity change 11.53 (inconclusive).
Result for O=C(Nc1ccc(S(=O)(=O)N2CCCC2)cc1)c1ccc(OCC2CCCO2)cc1 (stereo unspecified) [at 50 µM (top of the series)] was activity change 2.154 (inconclusive).
Result for Cc1onc(-c2ccccc2Cl)c1C(=O)OCC(=O)c1ccccc1 [at 50 µM (top of the series)] was activity change 1.956 (inconclusive).
Result for Cc1cccc(NC(=O)CC23CC4CC(C2)CC(n2nnc(C)n2)(C4)C3)c1 [at 50 µM (top of the series)] was activity change -4.849 (inconclusive).

For reference, 3 entries once more:

* COc1ccc(C#Cc2ccc3c(c2)[C@@H]2[C@@H](CCN2Cc2nccs2)[C@@H](CO)N3)cc1 [at 50 µM (top of the series)] | activity change -8.008 (inconclusive)
* COc1ccc(NS(=O)(=O)c2cccc3ccccc23)cc1 [at 50 µM (top of the series)] | activity change -20.55 (inconclusive)
* Cc1onc(-c2ccccc2Cl)c1C(=O)OCC(=O)c1ccccc1 [at 50 µM (top of the series)] | activity change 1.956 (inconclusive)